pIC50: −log10 of the molar value.
Test system: MCF‐7 human breast cancer cell line
Experiment: cells
Conditions: MCF7, 24 h
Protocol: Using GraphPad Prism software, the IC50 values were determined (Figure 8). After conducting the MTT assay, the absorbance data was entered into the software to generate dose–response curves. The nonlinear regression analysis function, specifically log(inhibitor) verus normalized response was employed to calculate the IC50 values for each compound. This method allowed for accurate determination of the concentration required to inhibit 50% of cell viability.
The MTT assay (3‐[4,5‐dimethylthiazol‐2‐yl]‐2,5‐diphenyltetrazolium bromide) was employed to evaluate the anticancer potential of the synthesized compounds against the MCF‐7 human breast cancer cell line. MCF‐7 cells were seeded into a 96‐well plate at a density of 1 × 10^4 cells per well and allowed to adhere for 24 h. Subsequently, the cells were treated with the test compounds at concentrations of 0.1, 1, 2, 5, and 10 µM, prepared in plain Dulbecco's Modified Eagle Medium (DMEM) media. After 24 h of incubation, MTT solution (100 µg per well; Sigma‐Aldrich) was added, and the plates were incubated for an additional 3–4 h to allow the formation of formazan crystals. The resulting formazan was dissolved in DMSO, and absorbance was measured at 570 nm using a microplate reader.

pIC50: 5.57
SMILES: CC/C(=C(\c1ccccc1)c1ccc(OCCN(C)C)cc1)c1ccccc1 [Tamoxifen, tamoxifen]

— PMC13052075, “Synthesis of 1,2,3,4‐Tetrahydroisoquinoline‐3‐Carboxylic Acid‐Embedded Decapeptides: In Silico Studies and In Vitro Evaluation Against Breast Cancer” (ChemistryOpen, 2025)
